From patent US20200123239A1 (PROTHENA BIOSCIENCES, published 2020)
Positions count from the first letter of the chain named. No constants are given. Whether binding was seen depends on the method and setting. Some entries that bind do so weakly or less than the wild type.

Amino acid sequences for entries named in this document (tags omitted). A change or cut given only in a name is not applied to a line headed by its entry. Chains listed by the source or under a name are the forms on record and can include a tag or linker.
UniProt P10636: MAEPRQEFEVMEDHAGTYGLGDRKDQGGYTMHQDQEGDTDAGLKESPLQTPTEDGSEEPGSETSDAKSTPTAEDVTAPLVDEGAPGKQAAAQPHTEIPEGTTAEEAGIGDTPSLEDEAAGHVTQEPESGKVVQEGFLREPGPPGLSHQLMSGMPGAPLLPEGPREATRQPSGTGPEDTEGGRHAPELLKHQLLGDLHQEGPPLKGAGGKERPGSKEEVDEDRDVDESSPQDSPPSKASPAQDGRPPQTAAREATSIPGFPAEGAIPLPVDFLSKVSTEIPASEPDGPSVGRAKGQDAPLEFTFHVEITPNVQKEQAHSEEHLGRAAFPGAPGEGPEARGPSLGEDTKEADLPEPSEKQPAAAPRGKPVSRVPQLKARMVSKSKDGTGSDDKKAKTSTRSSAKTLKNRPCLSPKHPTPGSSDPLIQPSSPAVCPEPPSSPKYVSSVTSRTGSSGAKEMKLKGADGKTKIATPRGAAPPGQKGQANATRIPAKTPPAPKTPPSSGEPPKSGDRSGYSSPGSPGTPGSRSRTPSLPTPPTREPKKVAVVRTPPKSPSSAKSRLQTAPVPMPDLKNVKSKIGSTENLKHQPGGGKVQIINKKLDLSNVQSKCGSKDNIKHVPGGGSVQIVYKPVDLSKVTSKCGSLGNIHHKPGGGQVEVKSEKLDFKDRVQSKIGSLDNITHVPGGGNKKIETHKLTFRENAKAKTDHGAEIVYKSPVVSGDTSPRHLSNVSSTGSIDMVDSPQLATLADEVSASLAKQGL
tau in brain cortex of Alzheimer's disease patients (P10636, form named): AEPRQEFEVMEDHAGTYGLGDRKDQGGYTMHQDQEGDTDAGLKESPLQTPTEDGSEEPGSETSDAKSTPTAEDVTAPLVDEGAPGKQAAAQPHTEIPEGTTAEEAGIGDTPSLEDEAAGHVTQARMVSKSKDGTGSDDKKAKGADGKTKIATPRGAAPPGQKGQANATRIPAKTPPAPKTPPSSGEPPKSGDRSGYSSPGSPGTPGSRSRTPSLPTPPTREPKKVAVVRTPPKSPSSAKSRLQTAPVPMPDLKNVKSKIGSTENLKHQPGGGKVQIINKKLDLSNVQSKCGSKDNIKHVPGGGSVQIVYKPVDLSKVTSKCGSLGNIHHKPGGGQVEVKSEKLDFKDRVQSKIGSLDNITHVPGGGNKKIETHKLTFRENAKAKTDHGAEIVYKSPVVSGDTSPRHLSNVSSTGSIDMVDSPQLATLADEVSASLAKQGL

Columns and labels:
[1] = target: purified tau (immunogen and ELISA antigen of Example 1) (human) (UniProt P10636); assay: capture ELISA
[2] = target: tau in brain cortex of Alzheimer's disease patients (human) (UniProt P10636); assay: immunohistochemistry, stain of AD tissue, 1 ug/mL
[3] = target: tau in brain cortex of Alzheimer's disease patients (human) (UniProt P10636); assay: immunohistochemistry on AD brain cortex sections
[4] = target: Δ37-46 deletion mutant of tau (rTau) (human) (UniProt P10636); assay: Western blot of bacterial lysates, 16B5 at 0.2 µg/mL
A41L = assay: Western blot of lysate (alanine scan), stained with 16B5
D34A = assay: as above
D38A = assay: as above
D40A = assay: as above
E36A = assay: as above
G42A = assay: as above
H32A = assay: as above
M31A = assay: as above
Q35A = assay: as above
T30A = assay: as above
T39A = assay: as above
[5] = target: tau in brain cortex of Alzheimer's disease patients (human) (UniProt P10636); assay: Immunoprecipitation from AD frontal cortex fractions (high-salt soluble; sarkosyl insoluble) with protein G beads, blot with polyclonal tau antibody
[6] = target: tau in brain cortex of Alzheimer's disease patients (human) (UniProt P10636); assay: double immunofluorescent labeling on AD brain cortex sections
[7] = target: tau in brain cortex of Alzheimer's disease patients (human) (UniProt P10636); assay: immunoprecipitation from AD frontal cortex fractions, blot with polyclonal tau antibody

Measured: binding

B1: murine monoclonal anti-tau antibody 16B5 (antibody, V domains shown)
VH: QIQLVQSGPELKKPGETVKISCKASGYPFTYHGMDWVKQAPWGGLEWMGWINTYSGVPTYADDFKGRFAFSLETSVGTAYLQINNLKNEDTATYFCARRRDFTMDFWGQGTSVTVSS
VL: NIVLSQSPSSLAVSPGEKVTMSCKSSQSLLNSRTRKNYLAWFQQKPGQSPKLLIYWASTRESGVPDRFTGSGSGTDFTLTISSVQAEDLAVYYCKQSYTLRTFGGGTNLEIKR
notes: Mouse monoclonal antibody; the isotype control used alongside it is IgG1; also called 16B5 monoclonal antibody; pan antibody 16B5
binds: [1] | [2] | [3] | [4] | A41L | D34A | D38A | D40A | E36A | G42A | H32A | M31A | Q35A | T30A | T39A | [5]

B2: humanized 16B5 antibody, version H1L2 (antibody, V domains shown)
VH: QVQLVQSGSELKKPGASVKVSCKASGYTFTYHGMDWVRQAPGQGLEWMGWINTYSGVPTYADDFKGRFVFSLDTSVSTAYLQISSLKAEDTAVYFCARRRDFTMDFWGQGTTVTVSS
VL: NIVLTQSPDSLAVSLGERATINCKSSQSLLNSRTRKNYLAWFQQKPGQSPKLLIYWASTRESGVPDRFSGSGSGTDFTLTISSLQAEDVAVYYCKQSYTLRTFGGGTKVEIKR
binds: [2] | [3] | [6] | [7]

B3: humanized 16B5 antibody, version H1L3 (antibody, V domains shown)
VH: B2 VH
VL: B2 VL with N1D
binds: [7]
